Test [1] concerns the target cyno CTLA-4 expressed on 293 cells (293-cynoCTLA-4 cells) (cyno). Kind of test: flow cytometry (MFI) on 293 cells expressing cynomolgus CTLA-4, Alexa 488 anti-human (H+L) detection.
Test [2] shares this target. The experiment in a line: flow cytometry on 293-cynoCTLA-4 cells.

No constants are given. Whether binding was seen depends on the method and setting. Binding can be weak; no strength is given.

B1: CL25 (antibody, human IgG1, V domains shown)
VH: EVQLVETGGGLIQPGGSLRLSCAASGFTVSSNYMSWVRQAPGKGLEWVSVIYSGGSTYYADSVKGRFTISRDNSKNTLYLQMSNLTAEDTAVYYCARAVPHSPSAFDRWGQGTLVTVSS
Take B1: the binding entry in test [1] and in test [2] was “binds” each time.

B2: CL5 (antibody, human IgG1, V domains shown)
VH: EVQLAETGGGLIQPGGSLRLSCAVSGFNVSKNYMSWVRQVPGKGLEWVAVVYSGGSKTYADSVKGRFILSRDNSDNTLYLQMNNLRAEDTAVYYCARAVPHSPSSFDIWGQGTMVTVSS
In the case of B2, the binding result in test [1] and in test [2] was “binds” each time.

B3: CL24 (antibody, human IgG1, V domains shown)
VH: EVQLVETGGGLIQPGGSLRLSCAASGLNVSRHYLSWVRQAPGKGLEWVAVIYSGGGIEYVDSVKGRFTISRDNANNTLYLQMRSLRTEDSAVYYCARAIPRPHGSDIWGQGTMVTVSS
Consider B3, for which the binding result in test [1] and in test [2] was “binds” in each case.

B4: CL22 (antibody, human IgG1, V domains shown)
VH: EVQLVETGGGLIQPGGSLRLSCAVSGFTVRNNYMSWARQVPGKGLEWVSVIYSGGSITYADSVKGRFIISRDNSNNTLYLQMNGLRAEDTAVYYCARAVPHAPSAFDIWGQGTMVTVSS
On to B4, for which the binding result in test [1] and in test [2] was “binds” throughout.

B5: CL11 (antibody, human IgG1, V domains shown)
VH: EVQLEETGGDLIQPGGSLRLSCTASGFNVSRIYMSWVRQAPGKGLEWVSVIYSGGSIYYADSVRGRFTISRDSSTNTVFLQMNSLRAEDSAVYYCARAVPSAPSSFDIWGQGTMVTVSS
As for B5, the binding result in test [1] and in test [2] was “binds” in each case.

B6: CL30 (antibody, human IgG1, V domains shown)
VH: EVQLEETGGDLIQPGGSLRLSCTASGFNVSRIYMSWVRQAPGKGLEWVSVIYSGGSIYYADSVRGRFTISRDSSTNTVYLQMNSLRAEDSAVYYCARAVPHAPSNFDKWGQGTRVTVSS
Take B6: the binding entry in test [1] and in test [2] was “binds” throughout.

B7: CL20 (antibody, human IgG1, V domains shown)
VH: EVQLVESGGGLVQPGGSLRLSCAASGFTFSNYWMHWVRQAPGKGLVWVSRINSDGSNTTYADSVKGRFTISRDNAKNTLYLQMNSLRAEDTAVYYCARWFGEHYYGMDVWGQGTTVTVSS
As to B7, the binding entry in test [2] is on record as “binds”.

B8: CL3 (antibody, human IgG1, V domains shown)
VH: EVQLVEIGGGEIQPGGSLRLSCAASGFNVSKNYMSWVRQAPGKGLEWVSVIYSGGGTEYAASVKGRFNISRDSSKNMLYLQMNNLRAEDTAVYYCARAVPRPHGTDIWGQGTMVTVSS
With B8, the binding result in test [1] and in test [2] was “binds” each time.
